Measurements as given in paper PMC11020826.
No constants are given. Whether binding was seen depends on the method and setting. Binding seen in cells or lysates may run through a third protein. Some binding calls cover weakened binding; strength is not graded here. Sequences can lack the tags named with a protein. One block for each binder: values may come before it.

Target: T1, nYFP-PYE (Arabidopsis) (UniProt Q9SN74)
T1 sequence: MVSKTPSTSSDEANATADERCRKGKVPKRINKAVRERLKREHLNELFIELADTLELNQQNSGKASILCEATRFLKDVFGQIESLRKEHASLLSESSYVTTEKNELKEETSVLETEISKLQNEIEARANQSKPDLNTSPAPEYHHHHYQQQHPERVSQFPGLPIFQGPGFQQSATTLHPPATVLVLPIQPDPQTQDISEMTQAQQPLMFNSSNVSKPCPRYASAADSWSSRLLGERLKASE
Test: split reporter; BiFC 2in1 vector system (pBiFC-2in1-NN, N-terminal nYFP and cYFP fusions) in transiently transformed tobacco leaf epidermis cells; mRFP as transformation control

binding: binds
Binder: WVPHEGTGIYYPKGQEK [cYFP-OLV-TGIYY]

binding: no binding
B1: cYFP-bHLH39 (protein, UniProt Q9M1K0 1-258)
chain: MCALVPPLFPNFGWPSTGEYDSYYLAGDILNNGGFLDFPVPEETYGAVTAVTQHQNSFGVSVSSEGNEIDNNPVVVKKLNHNASERDRRRKINSLFSSLRSCLPASGQSKKLSIPATVSRSLKYIPELQEQVKKLIKKKEELLVQISGQRNTECYVKQPPKAVANYISTVSATRLGDNEVMVQISSSKIHNFSISNVLSGLEEDRFVLVDMSSSRSQGERLFYTLHLQVEKIENYKLNCEELSQRMLYLYEECGNSYI
